The other results are listed elsewhere or left out.
Key:
Assay in all cases: log2 fold change, soluble protein after heating vs DMSO (PISA); higher = thermal stabilisation; K562 cells, 10 uM, 30 min; active = over 0.2 and 3.5 SD of the protein, either way, in both replicates (recomputed)
[1] = compound: CS(=O)(=O)c1ccc(-c2cnc(N)c(C(=O)Nc3ccccc3)n2)cc1
Procedure, shortened: (§1)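 Thermal stability values are relative to control samples and come from duplicates. They are expressed as log2 fold changes. For measurement, K562 cells (2×10^6 cells/mL) received 10 μM compound for 30 min, and aliquots were heated for 3 min over 48°C-58°C, pooled, and extracted at 4°C in PBS with 0.5% NP-40. Soluble protein, the supernatant after 21,000xg for 90 min, was quantified by TMTpro 16plex LC-MS/MS with equalised channel sums.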

The chains behind the UniProt entries cited, without tags or fusion partners. Where a name states a change or a piece, a line headed by the entry shows the natural chain unless it says otherwise.
UniProt O14735: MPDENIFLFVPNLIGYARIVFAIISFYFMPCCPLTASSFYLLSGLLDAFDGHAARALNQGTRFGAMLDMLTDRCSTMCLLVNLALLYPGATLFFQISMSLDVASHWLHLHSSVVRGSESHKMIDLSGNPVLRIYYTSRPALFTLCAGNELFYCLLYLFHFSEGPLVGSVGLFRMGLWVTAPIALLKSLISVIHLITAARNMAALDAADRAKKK
UniProt Q7LBR1: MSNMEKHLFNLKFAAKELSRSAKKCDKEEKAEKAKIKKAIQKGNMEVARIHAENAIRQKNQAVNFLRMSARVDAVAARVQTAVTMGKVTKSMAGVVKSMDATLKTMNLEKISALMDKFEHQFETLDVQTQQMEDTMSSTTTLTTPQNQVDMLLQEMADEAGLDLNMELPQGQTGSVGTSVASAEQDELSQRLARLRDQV
UniProt Q92879: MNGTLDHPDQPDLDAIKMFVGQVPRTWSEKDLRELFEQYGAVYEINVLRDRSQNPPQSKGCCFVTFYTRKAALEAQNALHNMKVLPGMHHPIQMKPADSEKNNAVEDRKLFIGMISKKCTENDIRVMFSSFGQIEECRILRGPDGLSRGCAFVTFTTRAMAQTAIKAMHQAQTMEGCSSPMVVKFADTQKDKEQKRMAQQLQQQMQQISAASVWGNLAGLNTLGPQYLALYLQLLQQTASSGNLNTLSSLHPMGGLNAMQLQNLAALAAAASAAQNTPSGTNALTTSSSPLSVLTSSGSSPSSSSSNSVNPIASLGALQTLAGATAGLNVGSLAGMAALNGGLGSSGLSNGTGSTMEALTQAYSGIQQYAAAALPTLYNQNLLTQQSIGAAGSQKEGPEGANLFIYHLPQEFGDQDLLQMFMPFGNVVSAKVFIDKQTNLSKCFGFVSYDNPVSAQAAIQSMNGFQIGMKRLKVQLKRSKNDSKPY
UniProt Q9Y232: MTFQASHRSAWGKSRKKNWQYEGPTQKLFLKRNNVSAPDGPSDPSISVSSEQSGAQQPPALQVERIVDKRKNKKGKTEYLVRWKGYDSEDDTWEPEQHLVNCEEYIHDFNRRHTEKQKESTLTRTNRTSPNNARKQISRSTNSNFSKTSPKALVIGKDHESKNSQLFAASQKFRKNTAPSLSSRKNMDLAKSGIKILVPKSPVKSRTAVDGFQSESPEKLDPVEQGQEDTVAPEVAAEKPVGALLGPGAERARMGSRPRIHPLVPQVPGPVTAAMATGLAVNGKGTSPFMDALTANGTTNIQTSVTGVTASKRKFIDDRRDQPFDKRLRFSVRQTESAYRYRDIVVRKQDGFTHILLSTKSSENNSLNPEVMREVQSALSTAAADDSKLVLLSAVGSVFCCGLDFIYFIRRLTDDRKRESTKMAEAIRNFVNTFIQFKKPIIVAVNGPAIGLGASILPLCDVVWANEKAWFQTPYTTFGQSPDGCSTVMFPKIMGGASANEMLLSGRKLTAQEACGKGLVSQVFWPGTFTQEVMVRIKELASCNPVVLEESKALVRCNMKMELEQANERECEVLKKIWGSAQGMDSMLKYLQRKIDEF
UniProt Q9C0F1: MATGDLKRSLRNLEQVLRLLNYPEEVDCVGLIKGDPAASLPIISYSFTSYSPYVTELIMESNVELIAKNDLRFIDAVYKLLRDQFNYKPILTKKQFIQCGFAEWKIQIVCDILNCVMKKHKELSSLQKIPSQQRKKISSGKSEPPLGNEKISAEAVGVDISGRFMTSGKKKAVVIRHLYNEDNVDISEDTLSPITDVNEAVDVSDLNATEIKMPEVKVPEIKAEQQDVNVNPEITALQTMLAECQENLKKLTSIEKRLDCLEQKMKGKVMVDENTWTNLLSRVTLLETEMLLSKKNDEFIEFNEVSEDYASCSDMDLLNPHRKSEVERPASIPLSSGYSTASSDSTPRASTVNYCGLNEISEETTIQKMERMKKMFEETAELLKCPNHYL
UniProt Q9BRQ6: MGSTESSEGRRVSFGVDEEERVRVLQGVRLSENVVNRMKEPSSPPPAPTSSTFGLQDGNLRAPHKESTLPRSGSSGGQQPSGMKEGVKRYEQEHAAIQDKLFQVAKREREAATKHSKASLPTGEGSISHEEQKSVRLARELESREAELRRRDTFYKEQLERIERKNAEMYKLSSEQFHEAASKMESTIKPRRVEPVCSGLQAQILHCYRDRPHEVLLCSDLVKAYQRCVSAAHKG
UniProt Q9UEE9, whole entry, looked up: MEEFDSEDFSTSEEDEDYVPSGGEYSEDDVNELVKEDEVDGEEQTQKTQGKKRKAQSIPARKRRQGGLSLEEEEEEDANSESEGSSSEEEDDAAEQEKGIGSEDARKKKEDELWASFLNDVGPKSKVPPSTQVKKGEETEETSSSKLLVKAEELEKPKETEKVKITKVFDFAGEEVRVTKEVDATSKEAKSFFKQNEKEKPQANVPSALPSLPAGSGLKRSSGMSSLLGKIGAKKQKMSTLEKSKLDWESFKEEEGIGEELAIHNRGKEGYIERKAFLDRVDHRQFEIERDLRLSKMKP
UniProt Q9HD42: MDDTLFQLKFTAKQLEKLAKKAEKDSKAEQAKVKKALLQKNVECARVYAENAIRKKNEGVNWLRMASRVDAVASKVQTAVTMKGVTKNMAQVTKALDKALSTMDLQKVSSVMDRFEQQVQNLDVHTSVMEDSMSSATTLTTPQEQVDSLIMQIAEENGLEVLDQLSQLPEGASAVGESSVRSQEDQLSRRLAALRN
UniProt P26374: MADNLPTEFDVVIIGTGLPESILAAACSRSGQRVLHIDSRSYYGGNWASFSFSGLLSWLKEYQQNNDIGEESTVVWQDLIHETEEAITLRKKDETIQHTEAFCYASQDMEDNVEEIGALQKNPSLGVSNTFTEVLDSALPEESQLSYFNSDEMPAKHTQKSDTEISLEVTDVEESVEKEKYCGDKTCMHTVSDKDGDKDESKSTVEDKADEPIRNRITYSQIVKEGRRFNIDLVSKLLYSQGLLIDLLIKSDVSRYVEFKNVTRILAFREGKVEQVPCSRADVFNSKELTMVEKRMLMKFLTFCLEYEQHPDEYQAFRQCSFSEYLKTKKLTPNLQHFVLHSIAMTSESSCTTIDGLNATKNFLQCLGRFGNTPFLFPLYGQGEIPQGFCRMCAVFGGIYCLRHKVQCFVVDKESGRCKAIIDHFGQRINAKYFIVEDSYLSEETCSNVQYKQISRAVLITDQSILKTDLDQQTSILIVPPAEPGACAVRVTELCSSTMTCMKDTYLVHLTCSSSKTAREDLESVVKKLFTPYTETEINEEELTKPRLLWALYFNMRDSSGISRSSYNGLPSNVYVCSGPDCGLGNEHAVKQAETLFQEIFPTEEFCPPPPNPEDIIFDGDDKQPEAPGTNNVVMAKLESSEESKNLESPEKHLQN
UniProt Q8TAP6: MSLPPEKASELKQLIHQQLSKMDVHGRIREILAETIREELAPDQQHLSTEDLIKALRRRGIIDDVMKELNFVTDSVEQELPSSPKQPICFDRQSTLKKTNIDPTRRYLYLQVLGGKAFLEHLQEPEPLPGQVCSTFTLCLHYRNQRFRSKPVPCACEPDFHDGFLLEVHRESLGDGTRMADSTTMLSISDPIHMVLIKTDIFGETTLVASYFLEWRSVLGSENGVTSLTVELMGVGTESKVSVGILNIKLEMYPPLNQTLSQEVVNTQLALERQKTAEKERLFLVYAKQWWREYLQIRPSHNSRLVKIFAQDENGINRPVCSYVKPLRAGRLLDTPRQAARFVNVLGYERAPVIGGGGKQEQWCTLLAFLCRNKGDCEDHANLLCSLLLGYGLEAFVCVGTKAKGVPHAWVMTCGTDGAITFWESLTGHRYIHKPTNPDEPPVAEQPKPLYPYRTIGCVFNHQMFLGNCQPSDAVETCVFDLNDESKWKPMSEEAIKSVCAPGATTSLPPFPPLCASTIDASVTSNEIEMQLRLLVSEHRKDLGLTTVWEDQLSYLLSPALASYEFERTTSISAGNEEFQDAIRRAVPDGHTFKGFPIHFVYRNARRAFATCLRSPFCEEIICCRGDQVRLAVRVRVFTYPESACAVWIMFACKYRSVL
UniProt Q5VV42: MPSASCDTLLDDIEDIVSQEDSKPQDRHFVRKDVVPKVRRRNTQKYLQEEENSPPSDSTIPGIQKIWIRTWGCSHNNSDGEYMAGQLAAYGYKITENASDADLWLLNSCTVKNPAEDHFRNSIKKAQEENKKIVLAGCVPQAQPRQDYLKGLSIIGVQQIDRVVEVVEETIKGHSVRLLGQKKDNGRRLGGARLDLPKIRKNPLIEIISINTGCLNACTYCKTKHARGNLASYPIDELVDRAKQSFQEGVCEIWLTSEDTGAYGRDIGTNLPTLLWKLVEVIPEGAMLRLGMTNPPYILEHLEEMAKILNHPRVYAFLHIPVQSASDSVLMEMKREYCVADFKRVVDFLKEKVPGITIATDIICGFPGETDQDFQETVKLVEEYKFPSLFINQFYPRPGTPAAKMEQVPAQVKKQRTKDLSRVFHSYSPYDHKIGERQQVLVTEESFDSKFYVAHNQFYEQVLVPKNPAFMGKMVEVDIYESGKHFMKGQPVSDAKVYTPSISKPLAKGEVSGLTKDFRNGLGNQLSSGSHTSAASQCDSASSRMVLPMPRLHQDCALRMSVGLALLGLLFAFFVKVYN
UniProt Q9Y3E7, whole entry, looked up: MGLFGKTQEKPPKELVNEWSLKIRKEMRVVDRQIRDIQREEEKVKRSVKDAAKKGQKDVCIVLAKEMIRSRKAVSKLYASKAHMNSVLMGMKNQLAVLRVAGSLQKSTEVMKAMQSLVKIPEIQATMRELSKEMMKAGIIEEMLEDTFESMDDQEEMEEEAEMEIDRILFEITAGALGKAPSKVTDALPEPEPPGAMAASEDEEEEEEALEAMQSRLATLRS
UniProt P50613: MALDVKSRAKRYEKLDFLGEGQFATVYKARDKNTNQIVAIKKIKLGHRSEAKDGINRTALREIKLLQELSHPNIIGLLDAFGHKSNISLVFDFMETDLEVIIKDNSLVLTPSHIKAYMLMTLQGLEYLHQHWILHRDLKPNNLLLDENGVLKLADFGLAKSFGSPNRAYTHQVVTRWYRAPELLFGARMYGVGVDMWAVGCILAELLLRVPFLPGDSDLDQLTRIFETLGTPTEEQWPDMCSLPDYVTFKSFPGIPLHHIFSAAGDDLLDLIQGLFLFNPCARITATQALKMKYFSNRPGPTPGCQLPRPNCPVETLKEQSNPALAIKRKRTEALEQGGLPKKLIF
UniProt Q9BWS9: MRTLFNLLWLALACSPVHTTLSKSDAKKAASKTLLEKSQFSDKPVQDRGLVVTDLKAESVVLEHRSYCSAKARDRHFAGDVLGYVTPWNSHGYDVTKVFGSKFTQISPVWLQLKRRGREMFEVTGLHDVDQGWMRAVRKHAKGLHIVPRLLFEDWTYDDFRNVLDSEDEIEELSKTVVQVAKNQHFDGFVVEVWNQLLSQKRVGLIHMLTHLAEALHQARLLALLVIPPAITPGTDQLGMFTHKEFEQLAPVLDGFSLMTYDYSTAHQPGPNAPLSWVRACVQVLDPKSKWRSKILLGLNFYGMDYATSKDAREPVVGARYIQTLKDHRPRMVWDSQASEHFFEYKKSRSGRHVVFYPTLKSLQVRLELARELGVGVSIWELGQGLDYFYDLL
UniProt P57076: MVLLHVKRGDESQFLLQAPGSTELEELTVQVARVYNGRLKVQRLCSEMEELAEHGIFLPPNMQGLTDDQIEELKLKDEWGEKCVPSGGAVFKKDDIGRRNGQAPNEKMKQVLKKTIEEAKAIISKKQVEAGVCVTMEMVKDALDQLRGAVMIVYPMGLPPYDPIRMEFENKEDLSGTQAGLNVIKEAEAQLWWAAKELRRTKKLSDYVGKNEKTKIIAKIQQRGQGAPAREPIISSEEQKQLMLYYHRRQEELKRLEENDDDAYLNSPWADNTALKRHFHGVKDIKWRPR

crizotinib = compound: C[C@@H](Oc1cc(-c2cnn(C3CCNCC3)c2)cnc1N)c1c(Cl)ccc(F)c1Cl [crizotinib]
Procedure, shortened: as §1

[2] = compound: C[C@@H]1COCCN1C2=NC(=NC(=C2)C3(CC3)S(=O)(=O)C)C4=C5C=CNC5=CC=C4
Procedure, shortened: as §1

[3] = compound: C[C@H](C1=CC=C(C=C1)C(=O)NC2=C3C=CNC3=NC=C2)N
Procedure, shortened: as §1

duvelisib = compound: C[C@H](Nc1ncnc2nc[nH]c12)c1cc2cccc(Cl)c2c(=O)n1-c1ccccc1 [duvelisib]
Procedure, shortened: as §1

gandotinib = compound: Cc1cc(Nc2cc(CN3CCOCC3)c3nc(C)c(Cc4ccc(Cl)cc4F)n3n2)n[nH]1 [gandotinib]
Procedure, shortened: as §1

tozasertib = compound: Cc1cc(Nc2cc(N3CCN(C)CC3)nc(Sc3ccc(NC(=O)C4CC4)cc3)n2)n[nH]1 [tozasertib]
Procedure, shortened: as §1

[4] = compound: Cc1cc(SCc2sc(-c3ccc(C(F)(F)F)cc3)nc2C)ccc1OCC(=O)O
Procedure, shortened: as §1

doramapimod = compound: Cc1ccc(-n2nc(C(C)(C)C)cc2NC(=O)Nc2ccc(OCCN3CCOCC3)c3ccccc23)cc1 [doramapimod]
Procedure, shortened: as §1

ispinesib = compound: Cc1ccc(C(=O)N(CCCN)[C@@H](c2nc3cc(Cl)ccc3c(=O)n2Cc2ccccc2)C(C)C)cc1 [ispinesib]
Procedure, shortened: as §1

bafetinib = compound: Cc1ccc(NC(=O)c2ccc(CN3CC[C@H](N(C)C)C3)c(C(F)(F)F)c2)cc1Nc1nccc(-c2cncnc2)n1 [bafetinib]
Procedure, shortened: as §1

[5] = compound: Cc1cccc(CC(=O)N2CCc3c2ccc(-c2cn(C)c4ncnc(N)c24)c3F)n1
Procedure, shortened: as §1

nilotinib = compound: Cc1cn(-c2cc(NC(=O)c3ccc(C)c(Nc4nccc(-c5cccnc5)n4)c3)cc(C(F)(F)F)c2)cn1 [nilotinib]
Procedure, shortened: as §1

[6] = compound: Cc1nc(Nc2n[nH]c3c2CN(C(=O)N[C@H](CN(C)C)c2ccccc2)C3(C)C)c2sccc2n1
Procedure, shortened: as §1

dasatinib = compound: Cc1nc(Nc2ncc(C(=O)Nc3c(C)cccc3Cl)s2)cc(N2CCN(CCO)CC2)n1 [dasatinib]
Procedure, shortened: as §1

[7] = compound: Cc1ncc(-c2ccnc(Nc3ccc(S(C)(=O)=O)cc3)n2)n1C(C)C
Procedure, shortened: as §1

[8] = compound: Cn1cc(-c2ccc3c(c2)CCN3C(=O)Cc2cccc(C(F)(F)F)c2)c2c(N)ncnc21
Procedure, shortened: as §1

[9] = compound: Cn1cc(-c2ccc3nnc(C(F)(F)c4ccc5ncccc5c4)n3n2)cn1
Procedure, shortened: as §1

tipifarnib = compound: Cn1cncc1[C@@](N)(c1ccc(Cl)cc1)c1ccc2c(c1)c(-c1cccc(Cl)c1)cc(=O)n2C [tipifarnib]
Procedure, shortened: as §1

mubritinib = compound: FC(F)(F)c1ccc(/C=C/c2nc(COc3ccc(CCCCn4ccnn4)cc3)co2)cc1 [mubritinib]
Procedure, shortened: as §1

Measured: log2 fold change

CDIPT (UniProt O14735)
inactive: [1] 0.061 | crizotinib 0.084 | [2] 0.073 | [3] -0.085 | duvelisib 0.128 | gandotinib -0.329 | tozasertib 0.013 | [4] -0.119 | doramapimod 0.018 | ispinesib -0.1 | bafetinib -0.129 | [5] -0.149 | nilotinib 0.028 | [6] -0.019 | dasatinib -0.029 | [7] 0.003 | [8] -0.024 | [9] 0.07 | tipifarnib 0.152 | mubritinib 0.056

CHMP1B (UniProt Q7LBR1)
inactive: [1] 0.011 | crizotinib -0.083 | [2] -0.022 | [3] 0.007 | duvelisib 0.038 | gandotinib -0.051 | tozasertib -0.023 | [4] -0.005 | doramapimod 0.013 | ispinesib -0.111 | bafetinib -0.07 | [5] 0.008 | nilotinib -0.155 | [6] 0.122 | dasatinib -0.017 | [7] -0.13 | [8] 0.027 | [9] -0.004 | tipifarnib -0.016 | mubritinib 0.035

CELF1 isoform 4 (UniProt Q92879)
inactive: [1] -0.042 | crizotinib -0.086 | [2] 0.005 | [3] 0.044 | duvelisib -0.084 | gandotinib 0.001 | tozasertib 0.074 | [4] 0.061 | doramapimod -0.046 | ispinesib -0.177 | bafetinib 0.031 | [5] 0.179 | nilotinib -0.041 | [6] -0.346 | dasatinib -0.233 | [7] 0.133 | [8] 0.066 | [9] 0.008 | tipifarnib -0.107 | mubritinib -0.075

CDYL (UniProt Q9Y232)
inactive: [1] 0.051 | crizotinib 0.007 | [2] -0.046 | [3] 0.057 | duvelisib -0.007 | gandotinib 0.022 | tozasertib -0.042 | [4] -0.017 | doramapimod -0.019 | ispinesib 0.022 | bafetinib -0.096 | [5] 0.001 | nilotinib 0.049 | [6] -0.062 | dasatinib 0.055 | [7] -0.073 | [8] 0.021 | [9] -0.024 | tipifarnib 0.103 | mubritinib 0.044

CEP44 (UniProt Q9C0F1)
inactive: [1] -0.087 | crizotinib -0.205 | [2] 0.207 | [3] 0.245 | duvelisib -0.08 | gandotinib -0.044 | tozasertib 0.027 | [4] -0.039 | doramapimod 0.042 | ispinesib -0.103 | bafetinib -0.209 | [5] -0.08 | nilotinib -0.043 | [6] -0.129 | dasatinib 0.046 | [7] 0.151 | [8] 0.111 | [9] -0.046 | tipifarnib -0.042 | mubritinib -0.158

CHCHD6 (UniProt Q9BRQ6)
inactive: [1] -0.049 | crizotinib 0.042 | [2] -0.041 | [3] 0 | duvelisib 0.108 | gandotinib 0 | tozasertib -0.199 | [4] -0.005 | doramapimod 0.096 | ispinesib -0.01 | bafetinib -0.167 | [5] -0.042 | nilotinib -0.086 | [6] 0.026 | dasatinib 0.101 | [7] 0.003 | [8] 0.097 | [9] 0.083 | tipifarnib -0.057 | mubritinib 0.009

Looked up one by one from above, two records:
CELF1 isoform 4 (UniProt Q92879)
inactive: [1] -0.042 | crizotinib -0.086 | [2] 0.005 | [3] 0.044 | duvelisib -0.084 | gandotinib 0.001 | tozasertib 0.074 | [4] 0.061 | doramapimod -0.046 | ispinesib -0.177 | bafetinib 0.031 | [5] 0.179 | nilotinib -0.041 | [6] -0.346 | dasatinib -0.233 | [7] 0.133 | [8] 0.066 | [9] 0.008 | tipifarnib -0.107 | mubritinib -0.075

CDYL (UniProt Q9Y232)
inactive: [1] 0.051 | crizotinib 0.007 | [2] -0.046 | [3] 0.057 | duvelisib -0.007 | gandotinib 0.022 | tozasertib -0.042 | [4] -0.017 | doramapimod -0.019 | ispinesib 0.022 | bafetinib -0.096 | [5] 0.001 | nilotinib 0.049 | [6] -0.062 | dasatinib 0.055 | [7] -0.073 | [8] 0.021 | [9] -0.024 | tipifarnib 0.103 | mubritinib 0.044

Continuation.

CFDP1 (UniProt Q9UEE9)
inactive: [1] 0.008 | crizotinib 0.037 | [2] 0.044 | [3] -0.026 | duvelisib 0.039 | gandotinib 0.04 | tozasertib -0.009 | [4] -0.06 | doramapimod -0.015 | ispinesib -0.063 | bafetinib -0.071 | [5] -0.042 | nilotinib -0.007 | [6] 0.009 | dasatinib 0.069 | [7] -0.008 | [8] 0.005 | [9] 0.014 | tipifarnib -0.046 | mubritinib 0.033

CHMP1A (UniProt Q9HD42)
inactive: [1] 0.01 | crizotinib -0.104 | [2] 0.01 | [3] -0.044 | duvelisib 0.013 | gandotinib 0.017 | tozasertib -0.023 | [4] 0.004 | doramapimod -0.023 | ispinesib -0.068 | bafetinib -0.123 | [5] 0.032 | nilotinib -0.011 | [6] -0.03 | dasatinib -0.026 | [7] 0.011 | [8] 0.013 | [9] 0.034 | tipifarnib 0.047 | mubritinib 0.006

CHML (UniProt P26374)
inactive: [1] 0.043 | crizotinib 0.063 | [2] 0.058 | [3] -0.073 | duvelisib 0.062 | gandotinib -0.057 | tozasertib -0.016 | [4] -0.003 | doramapimod -0.046 | ispinesib 0.142 | bafetinib -0.006 | [5] 0.013 | nilotinib -0.02 | [6] -0.013 | dasatinib -0.009 | [7] -0.004 | [8] 0.029 | [9] -0.007 | tipifarnib -0.078 | mubritinib 0.054

CEP76 (UniProt Q8TAP6)
inactive: [1] 0.006 | crizotinib 0.055 | [2] 0.011 | [3] 0.084 | duvelisib 0.081 | gandotinib 0.019 | tozasertib -0.018 | [4] -0.008 | doramapimod -0.016 | ispinesib 0.065 | bafetinib -0.004 | [5] 0.018 | nilotinib -0.016 | [6] -0.009 | dasatinib 0.014 | [7] -0.01 | [8] -0.078 | [9] 0.018 | tipifarnib 0.08 | mubritinib 0.045

CDKAL1 (UniProt Q5VV42)
inactive: [1] 0.059 | crizotinib -0.071 | [2] 0.066 | [3] 0.05 | duvelisib -0.029 | gandotinib 0.056 | tozasertib -0.014 | [4] 0.006 | doramapimod 0.044 | ispinesib -0.087 | bafetinib 0.036 | [5] 0.01 | nilotinib -0.003 | [6] -0.004 | dasatinib -0.011 | [7] -0.009 | [8] 0.079 | [9] 0.05 | tipifarnib 0.09 | mubritinib 0.057

CHMP3 (UniProt Q9Y3E7)
inactive: [1] 0.01 | crizotinib -0.017 | [2] 0.004 | [3] -0.116 | duvelisib 0.104 | gandotinib 0.022 | tozasertib -0.001 | [4] -0.047 | doramapimod 0.001 | ispinesib -0.065 | bafetinib -0.138 | [5] -0.014 | nilotinib 0.011 | [6] -0.025 | dasatinib -0.051 | [7] -0.017 | [8] 0.035 | [9] 0.029 | tipifarnib 0.007 | mubritinib 0.118

CDK7 (UniProt P50613)
inactive: [1] 0.034 | crizotinib 0.024 | [2] -0.058 | [3] 0.001 | duvelisib -0.01 | gandotinib 0.083 | tozasertib -0.009 | [4] -0.012 | doramapimod 0.001 | ispinesib 0.104 | bafetinib -0.061 | [5] -0.004 | nilotinib -0.01 | [6] 0.115 | dasatinib 0.052 | [7] -0.037 | [8] -0.024 | [9] 0.008 | tipifarnib 0.012 | mubritinib 0.029

CHID1 (UniProt Q9BWS9)
inactive: [1] -0.02 | crizotinib 0.023 | [2] -0.116 | [3] 0.103 | duvelisib -0.04 | gandotinib 0.051 | tozasertib 0.015 | [4] 0.032 | doramapimod 0.073 | ispinesib 0.04 | bafetinib 0.037 | [5] 0.013 | nilotinib -0.006 | [6] 0.036 | dasatinib 0.006 | [7] -0.085 | [8] -0.104 | [9] -0.031 | tipifarnib 0.025 | mubritinib -0.115

CFAP298 (UniProt P57076)
inactive: [1] -0.15 | crizotinib -0.128 | [2] -0.227 | [3] 0.306 | duvelisib -0.099 | gandotinib 0.053 | tozasertib 0.257 | [4] 0.109 | doramapimod 0.202 | ispinesib -0.244 | bafetinib 0.057 | [5] 0.178 | nilotinib -0.04 | [6] -0.013 | dasatinib -0.072 | [7] 0.043 | [8] -0.104 | [9] -0.038 | tipifarnib -0.047 | mubritinib -0.029

Source: the supplement of paper PMC10849652
